Data: article PMC13191460
These are yes or no findings as the source states them, for the method shown. Binding seen in cells or lysates may run through a third protein. These calls come from enrichment with a bait or labelling near it, and not all partners need be listed.

Sequences of proteins named here, by UniProt entry; tags and fusion partners are left off.
UniProt P09874: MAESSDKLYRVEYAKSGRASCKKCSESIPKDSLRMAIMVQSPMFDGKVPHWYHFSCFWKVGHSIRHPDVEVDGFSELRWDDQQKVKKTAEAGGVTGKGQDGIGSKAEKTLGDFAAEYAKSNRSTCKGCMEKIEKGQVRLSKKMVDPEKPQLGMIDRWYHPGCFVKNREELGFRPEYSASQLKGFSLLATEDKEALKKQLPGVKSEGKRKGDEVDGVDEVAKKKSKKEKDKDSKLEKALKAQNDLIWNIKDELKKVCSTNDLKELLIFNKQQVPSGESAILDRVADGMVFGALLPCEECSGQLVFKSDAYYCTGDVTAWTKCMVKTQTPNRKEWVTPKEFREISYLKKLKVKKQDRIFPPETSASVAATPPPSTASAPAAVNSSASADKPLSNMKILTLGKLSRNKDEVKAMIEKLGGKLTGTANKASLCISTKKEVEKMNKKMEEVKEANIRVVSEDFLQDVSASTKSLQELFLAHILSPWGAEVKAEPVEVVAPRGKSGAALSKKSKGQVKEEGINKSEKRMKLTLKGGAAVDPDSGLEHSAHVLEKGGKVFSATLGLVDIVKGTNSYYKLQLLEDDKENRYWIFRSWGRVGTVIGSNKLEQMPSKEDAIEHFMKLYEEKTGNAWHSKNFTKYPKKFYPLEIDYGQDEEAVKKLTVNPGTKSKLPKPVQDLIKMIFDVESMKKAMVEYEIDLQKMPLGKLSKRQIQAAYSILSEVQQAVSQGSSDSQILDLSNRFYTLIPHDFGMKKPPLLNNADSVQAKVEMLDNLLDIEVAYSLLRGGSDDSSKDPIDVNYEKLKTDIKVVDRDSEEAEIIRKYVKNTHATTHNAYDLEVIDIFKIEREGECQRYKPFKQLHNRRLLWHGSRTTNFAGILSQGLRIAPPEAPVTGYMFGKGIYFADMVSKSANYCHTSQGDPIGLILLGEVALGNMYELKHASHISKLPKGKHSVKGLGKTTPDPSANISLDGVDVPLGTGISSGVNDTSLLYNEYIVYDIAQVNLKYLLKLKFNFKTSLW

Molecular target: SFB-DDX11 (from pIRES2-SFB-DDX11) (human) (UniProt Q96FC9)
Test: affinity purification with mass spectrometry; tandem affinity purification of SFB-DDX11 from transfected NOZ cells (72 h), NETN lysis buffer; Flag M2 beads, elution with Flag peptide, then S protein agarose; SDS-PAGE, silver stain, bands excised for LC-MS/MS; SFB-vector as control

- binding: binds
Substance: PARP1 (endogenous) (from UniProt P09874 1-1014)
